In PubChem BioAssay AID248 (DTP/NCI, 2004):
The list is a part of this screen's results and no random one: it gathers tests that were run many times, whatever their T/C, doses with no T/C, and many T/C values between a quarter and a half above the control. Other doses and runs of a compound stand elsewhere. T/C: endpoint of the treated group in % of that of the vehicle group. Some doses have a count of surviving animals in place of a T/C: the source holds a T/C of zero for them, seemingly a mark for toxic or unscored doses. Some survivor counts are full or nearly so, which does not show that the dose was tolerated: survival well below the control is almost never listed, so the zero probably covers shortened survival too. Counts of survivors are from the toxicity check (mostly the fifth day) where no day follows; animals may have died later. Schedules are NCI's codes, read here as Q, the interval in days (D) or hours (H), X, the number of doses. Some schedule codes hold Z or #, which are not explained here. Some doses were run more than once; the values are given in rising order. Where survival is the endpoint, this PubChem deposit counts one and a half times the control or more as active, and values a quarter to a half above the control carry no call in these data; other NCI protocols may use other cut-offs. Some T/C values are followed by the survivors on the day toxicity was checked, most often the fifth; where none is given, no animal had died by that day.

System: L1210 leukemia ip in BDF1 mice, survival T/C
Assay: NCI In Vivo Anticancer Drug Screen. Data for tumor model L1210 Leukemia (intraperitoneal) in B6D2F1 (BDF1) mice
Settings: T/C endpoint: mean survival time, higher T/C = longer survival
[1] = dose: 200.0 mg/kg/injection, schedule: Q01DX009 (ip), vehicle: saline with Tween-80
[2] = dose: 400.0 mg/kg/injection, schedule: Q04DX003 (ip), vehicle: saline
[3] = dose: 100.0 mg/kg/injection, schedule: Q01DX001 (ip), vehicle: carboxymethylcellulose (CMC)
[4] = dose: 200.0 mg/kg/injection, schedule: Q01DX001 (ip), vehicle: carboxymethylcellulose (CMC)
[5] = dose: 400.0 mg/kg/injection, schedule: Q01DX001 (ip), vehicle: carboxymethylcellulose (CMC)
[6] = dose: 400.0 mg/kg/injection, schedule: Q01DX001 (ip), vehicle: saline

Compound: C[N+](C)(C)c1ncnc2nc[nH]c12
- T/C (dose: 11.25 mg/kg/injection, schedule: Q01DX Z (ip), vehicle: saline): 127 % of control
- T/C (dose: 15.0 mg/kg/injection, schedule: Q01DX009 (ip), vehicle: saline): 95, 104, 106, 109 % of control
- T/C (dose: 30.0 mg/kg/injection, schedule: Q01DX009 (ip), vehicle: saline): 90, 92, 113, 117 % of control
- T/C (dose: 60.0 mg/kg/injection, schedule: Q01DX009 (ip), vehicle: saline): 102, 113 [5 of 6 alive], 118, 122 % of control
- T/C (dose: 62.0 mg/kg/injection, schedule: Q01DX009 (ip), vehicle: saline): 129 % of control
- T/C (dose: 80.0 mg/kg/injection, schedule: Q01DX015 (ip), vehicle: saline): 137 % of control
- T/C (dose: 90.0 mg/kg/injection, schedule: Q01DX Z (ip), vehicle: saline): 149 % of control
- T/C (dose: 120.0 mg/kg/injection, schedule: Q01DX009 (ip), vehicle: saline): 100, 108, 109 [5 of 6 alive], 132 % of control
- T/C (dose: 120.0 mg/kg/injection, schedule: Q01DX015 (ip), vehicle: saline): 141 % of control
- T/C (dose: 125.0 mg/kg/injection, schedule: Q01DX009 (ip), vehicle: saline): 132 % of control
- T/C (dose: 125.0 mg/kg/injection, schedule: Q01DX009 (oral), vehicle: saline): 135 % of control
- T/C (dose: 180.0 mg/kg/injection, schedule: Q01DX015 (ip), vehicle: saline): 148 % of control
- T/C (dose: 180.0 mg/kg/injection, schedule: Q01DX Z (ip), vehicle: carboxymethylcellulose (CMC)): 128 % of control [6 of 7 alive]
- T/C (dose: 180.0 mg/kg/injection, schedule: Q01DX Z (ip), vehicle: saline): 137 % of control
- T/C (dose: 200.0 mg/kg/injection, schedule: Q## X024 (ip), vehicle: saline): 125 % of control
- T/C (dose: 250.0 mg/kg/injection, schedule: Q01DX005 (ip), vehicle: saline): 132 % of control [7 of 10 alive]
- survivor count (dose: 250.0 mg/kg/injection, schedule: Q01DX009 (ip), vehicle: saline): 5 of 10
- T/C (dose: 250.0 mg/kg/injection, schedule: Q01DX009 (oral), vehicle: saline): 134 % of control
- survivor count (dose: 270.0 mg/kg/injection, schedule: Q01DX Z (ip), vehicle: carboxymethylcellulose (CMC)): 2 of 6
- T/C (dose: 400.0 mg/kg/injection, schedule: Q## X024 (ip), vehicle: saline): 143 % of control [9 of 10 alive]
- survivor count (dose: 405.0 mg/kg/injection, schedule: Q01DX015 (ip), vehicle: saline): 10 of 10
- survivor count (dose: 405.0 mg/kg/injection, schedule: Q01DX Z (ip), vehicle: carboxymethylcellulose (CMC)): 0 of 6
- survivor count (dose: 500.0 mg/kg/injection, schedule: Q01DX001 (ip), vehicle: saline): 0 of 10
- survivor count (dose: 500.0 mg/kg/injection, schedule: Q01DX001 (sc), vehicle: saline): 5 of 10
- T/C (dose: 500.0 mg/kg/injection, schedule: Q01DX009 (oral), vehicle: saline): 143 % of control
- survivor count (dose: 500.0 mg/kg/injection, schedule: Q01DX009 (sc), vehicle: saline): 0 of 10
- survivor count (dose: 500.0 mg/kg/injection, schedule: Q## X003 (ip), vehicle: saline): 0 of 9
- survivor count (dose: 605.0 mg/kg/injection, schedule: Q01DX Z (ip), vehicle: carboxymethylcellulose (CMC)): 0 of 6
- T/C (dose: 800.0 mg/kg/injection, schedule: Q## X008 (ip), vehicle: saline): 146 % of control
- survivor count (dose: 1000.0 mg/kg/injection, schedule: Q01DX001 (ip), vehicle: saline): 0 of 10
- survivor count (dose: 1000.0 mg/kg/injection, schedule: Q01DX001 (sc), vehicle: saline): 0 of 10
- survivor count (dose: 1000.0 mg/kg/injection, schedule: Q## X003 (ip), vehicle: saline): 0 of 10

Compound: N#CC1C=CCC1 (stereo unspecified)
- survivor count [1]: 3 of 3

Compound: CC(C)C[C@H](O)C(=O)O
- T/C (dose: 50.0 mg/kg/injection, schedule: Q01DX009 (ip), vehicle: saline): 127 % of control
- survivor count [2]: 3 of 6

Compound: Cc1c(Cl)cccc1NC(=O)CCl
- survivor count (dose: 400.0 mg/kg/injection, schedule: Q01DX009 (ip), vehicle: saline with Tween-80): 0 of 6

Compound: CCCCOc1ccc(NC(N)=Nc2ccc(Cl)cc2)cc1
- survivor count [3]: 0 of 4
- survivor count [4]: 0 of 4
- survivor count [5]: 0 of 4

Compound: CN(C)CCCN1c2ccccc2C(C)(C)c2ccccc21
- survivor count [1]: 3 of 6
- survivor count (dose: 200.0 mg/kg/injection, schedule: Q01DX009 (ip), vehicle: saline): 3 of 6
- survivor count [6]: 0 of 4
- survivor count (dose: 400.0 mg/kg/injection, schedule: Q01DX009 (ip), vehicle: saline): 0 of 6
- survivor count (dose: 400.0 mg/kg/injection, schedule: Q04DX003 (ip), vehicle: saline with Tween-80): 0 of 6

Compound: Nc1ccc(S(=O)(=O)c2ccc(N)cn2)cc1
- T/C (dose: 200.0 mg/kg/injection, schedule: Q04DX002 (ip), vehicle: Klucel (hydroxypropylcellulose) (HPC)): 128 % of control

Compound: CCOC(=O)c1ccc(Oc2ncc([N+](=O)[O-])s2)cc1
- survivor count (dose: 11.25 mg/kg/injection, schedule: Q01DX009 (ip), vehicle: acetone): 6 of 6
- survivor count (dose: 12.5 mg/kg/injection, schedule: Q01DX001 (ip), vehicle: saline): 6 of 6
- survivor count (dose: 22.5 mg/kg/injection, schedule: Q01DX009 (ip), vehicle: acetone): 6 of 6
- survivor count (dose: 25.0 mg/kg/injection, schedule: Q01DX001 (ip), vehicle: saline): 6 of 6
- survivor count (dose: 45.0 mg/kg/injection, schedule: Q01DX009 (ip), vehicle: acetone): 6 of 6
- survivor count (dose: 45.0 mg/kg/injection, schedule: Q04DX003 (ip), vehicle: saline with Tween-80): 6 of 6
- survivor count (dose: 50.0 mg/kg/injection, schedule: Q01DX001 (ip), vehicle: saline): 6 of 6
- survivor count (dose: 65.0 mg/kg/injection, schedule: Q04DX003 (ip), vehicle: saline): 3 of 6
- survivor count (dose: 100.0 mg/kg/injection, schedule: Q01DX001 (ip), vehicle: saline): 0 of 6
- survivor count (dose: 200.0 mg/kg/injection, schedule: Q01DX001 (ip), vehicle: saline): 0 of 6
- survivor count [6]: 0 of 6

Compound: CCCCC1=C(OCC)C(CCCC)C1=O (stereo unspecified)
- survivor count (dose: 200.0 mg/kg/injection, schedule: Q01DX009 (ip), vehicle: Klucel (hydroxypropylcellulose) (HPC)): 6 of 6
- survivor count (dose: 400.0 mg/kg/injection, schedule: Q01DX009 (ip), vehicle: Klucel (hydroxypropylcellulose) (HPC)): 0 of 6
- survivor count (dose: 400.0 mg/kg/injection, schedule: Q04DX003 (ip), vehicle: Klucel (hydroxypropylcellulose) (HPC)): 5 of 6

Compound: CCN=C(Nc1ccc(C(=NC)NCC)cc1)c1ccc(C(=NCC)Nc2ccc(C(=NC)NCC)cc2)cc1
- survivor count (dose: 6.0 mg/kg/injection, schedule: Q01DX Z (ip), vehicle: saline): 1 of 6 and 6 of 6
- survivor count (dose: 10.0 mg/kg/injection, schedule: Q01DX Z (ip), vehicle: saline): 0 of 6
- survivor count (dose: 15.0 mg/kg/injection, schedule: Q01DX Z (ip), vehicle: saline): 0 of 6
- survivor count (dose: 22.0 mg/kg/injection, schedule: Q01DX Z (ip), vehicle: saline): 0 of 6

Compound: OCC#CCO
- survivor count (dose: 12.0 mg/kg/injection, schedule: Q01DX009 (ip), vehicle: other): 0 of 6
- survivor count (dose: 25.0 mg/kg/injection, schedule: Q01DX009 (ip), vehicle: other): 0 of 6
- survivor count [3]: 0 of 4
- survivor count (dose: 100.0 mg/kg/injection, schedule: Q04DX003 (ip), vehicle: saline): 1 of 6
- survivor count [4]: 0 of 4
- survivor count (dose: 200.0 mg/kg/injection, schedule: Q04DX003 (ip), vehicle: saline): 0 of 6
- survivor count [5]: 0 of 4
- survivor count [2]: 0 of 6
